Measured values published in PMC5966388.
Results are given in words; binding and its absence hold for the method and conditions named. In cells and extracts the contact can be indirect. Some results given as binding are weak or reduced against the parent protein; the word gives no strength. Where a sequence is shown, tags or fusion partners need not be part of it.

Sequences of proteins named here, by UniProt entry; tags and fusion partners are left off. Residues count along the entry.
UniProt P05106, residues 27-788: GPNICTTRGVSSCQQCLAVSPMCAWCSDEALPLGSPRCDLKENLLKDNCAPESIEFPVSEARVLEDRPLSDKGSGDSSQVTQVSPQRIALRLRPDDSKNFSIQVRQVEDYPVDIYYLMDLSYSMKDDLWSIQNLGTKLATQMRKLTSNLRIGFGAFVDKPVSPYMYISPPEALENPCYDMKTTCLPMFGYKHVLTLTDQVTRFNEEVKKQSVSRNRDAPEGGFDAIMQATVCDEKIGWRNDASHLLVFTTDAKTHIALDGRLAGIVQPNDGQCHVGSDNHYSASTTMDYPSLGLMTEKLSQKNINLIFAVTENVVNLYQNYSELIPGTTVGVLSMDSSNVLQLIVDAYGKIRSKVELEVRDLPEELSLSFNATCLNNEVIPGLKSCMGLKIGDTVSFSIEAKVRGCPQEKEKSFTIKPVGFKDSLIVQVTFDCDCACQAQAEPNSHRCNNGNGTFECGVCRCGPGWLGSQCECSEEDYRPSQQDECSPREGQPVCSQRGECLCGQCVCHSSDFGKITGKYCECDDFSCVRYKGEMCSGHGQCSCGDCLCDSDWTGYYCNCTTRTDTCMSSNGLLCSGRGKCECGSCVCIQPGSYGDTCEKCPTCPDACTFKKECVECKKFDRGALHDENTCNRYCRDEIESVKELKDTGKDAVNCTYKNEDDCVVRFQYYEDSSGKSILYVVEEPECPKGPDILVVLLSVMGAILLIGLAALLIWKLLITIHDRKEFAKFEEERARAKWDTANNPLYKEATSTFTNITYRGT

Tests used:
[1] = biological target: β3-integrin (ITGB3), Myc-tagged (UniProt P05106); assay: co-IP; reverse competition (Supplementary Figure S4a and b): interaction of TGFBI with ITGB3/5 tested with overexpression of pro-TGFβ1; details of the IP not shown
[2] = biological target: β3-integrin (ITGB3), Myc-tagged (UniProt P05106); assay: co-IP; HEK293T cells transfected with two proteins; lysis in 50 mM Hepes pH 7.6, 150 mM NaCl, 5 mM EDTA, 1-2% Nonidet P-40; lysates incubated overnight at 4 °C with anti-GFP, anti-Myc (9E10) or anti-Flag M2, then 1 h with Protein-A Sepharose; three washes in buffer without NP-40; western blot

binding [1]: binds | binding [2]: binds
B1: transforming growth factor beta-induced (TGFBI), non-tagged (protein, UniProt Q15582 24-683)
chain: GPAKSPYQLVLQHSRLRGRQHGPNVCAVQKVIGTNRKYFTNCKQWYQRKICGKSTVISYECCPGYEKVPGEKGCPAALPLSNLYETLGVVGSTTTQLYTDRTEKLRPEMEGPGSFTIFAPSNEAWASLPAEVLDSLVSNVNIELLNALRYHMVGRRVLTDELKHGMTLTSMYQNSNIQIHHYPNGIVTVNCARLLKADHHATNGVVHLIDKVISTITNNIQQIIEIEDTFETLRAAVAASGLNTMLEGNGQYTLLAPTNEAFEKIPSETLNRILGDPEALRDLLNNHILKSAMCAEAIVAGLSVETLEGTTLEVGCSGDMLTINGKAIISNKDILATNGVIHYIDELLIPDSAKTLFELAAESDVSTAIDLFRQAGLGNHLSGSERLTLLAPLNSVFKDGTPPIDAHTRNLLRNHIIKDQLASKYLYHGQTLETLGGKKLRVFVYRNSLCIENSCIAAHDKRGRYGTLFTMDRVLTPPMGTVMDVLKGDNRFSMLVAAIQSAGLTETLNREGVYTVFAPTNEAFRALPPRERSRLLGDAKELANILKYHIGDEILVSGGIGALVRLKSLQGDKLEVSLKNNVVSVNKEPVAEPDIMATNGVVHVITNVLQPPANRPQERGDELADSALEIFKQASAFSRASQRSVRLAPVYQKLLERMKH
